Measured values reported in the supplement of paper PMC10849652.
The list shows a part of the results.

The chains behind the UniProt entries cited, without tags or fusion partners. Where a name states a change or a piece, a line headed by the entry shows the natural chain unless it says otherwise.
UniProt Q16629: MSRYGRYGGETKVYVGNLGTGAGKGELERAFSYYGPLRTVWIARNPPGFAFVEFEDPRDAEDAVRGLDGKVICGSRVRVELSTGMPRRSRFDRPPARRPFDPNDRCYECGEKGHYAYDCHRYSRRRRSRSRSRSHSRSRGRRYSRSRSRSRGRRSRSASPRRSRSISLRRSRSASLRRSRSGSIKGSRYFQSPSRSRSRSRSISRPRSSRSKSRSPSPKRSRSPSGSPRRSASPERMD
UniProt P40763, whole entry, looked up: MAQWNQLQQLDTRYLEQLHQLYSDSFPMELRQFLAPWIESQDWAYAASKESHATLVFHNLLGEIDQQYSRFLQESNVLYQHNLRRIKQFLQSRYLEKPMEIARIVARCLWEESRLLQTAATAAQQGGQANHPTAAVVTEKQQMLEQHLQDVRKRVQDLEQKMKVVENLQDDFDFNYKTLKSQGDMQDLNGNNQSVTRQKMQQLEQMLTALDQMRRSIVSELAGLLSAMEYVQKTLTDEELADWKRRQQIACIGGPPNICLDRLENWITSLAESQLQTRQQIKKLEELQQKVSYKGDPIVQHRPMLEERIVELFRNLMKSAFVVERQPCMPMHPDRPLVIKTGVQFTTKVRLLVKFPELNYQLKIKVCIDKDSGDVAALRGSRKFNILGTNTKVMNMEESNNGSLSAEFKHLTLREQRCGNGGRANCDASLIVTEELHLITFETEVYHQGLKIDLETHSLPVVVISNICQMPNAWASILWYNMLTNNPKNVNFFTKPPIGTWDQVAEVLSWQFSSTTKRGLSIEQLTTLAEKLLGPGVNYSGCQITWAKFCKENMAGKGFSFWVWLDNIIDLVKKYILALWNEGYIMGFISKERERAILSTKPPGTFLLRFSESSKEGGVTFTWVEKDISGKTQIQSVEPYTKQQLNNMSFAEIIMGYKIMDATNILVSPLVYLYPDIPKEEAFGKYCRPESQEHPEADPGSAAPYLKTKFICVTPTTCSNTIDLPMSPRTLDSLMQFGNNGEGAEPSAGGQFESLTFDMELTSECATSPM
UniProt Q9BUA3: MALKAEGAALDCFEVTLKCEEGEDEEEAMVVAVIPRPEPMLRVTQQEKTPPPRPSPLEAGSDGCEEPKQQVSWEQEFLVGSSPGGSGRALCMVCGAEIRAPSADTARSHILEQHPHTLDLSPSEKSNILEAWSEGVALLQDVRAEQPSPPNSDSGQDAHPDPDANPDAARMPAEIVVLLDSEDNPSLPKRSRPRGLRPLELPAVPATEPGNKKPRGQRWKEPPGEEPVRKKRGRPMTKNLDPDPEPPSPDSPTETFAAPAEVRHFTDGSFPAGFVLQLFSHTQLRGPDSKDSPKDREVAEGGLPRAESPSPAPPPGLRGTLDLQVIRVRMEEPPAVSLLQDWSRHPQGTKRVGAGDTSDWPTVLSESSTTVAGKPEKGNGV
UniProt Q9BYN0: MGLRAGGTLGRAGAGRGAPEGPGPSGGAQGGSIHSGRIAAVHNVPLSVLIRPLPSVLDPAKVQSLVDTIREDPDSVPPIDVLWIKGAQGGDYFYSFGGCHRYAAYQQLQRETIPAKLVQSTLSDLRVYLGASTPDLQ
UniProt O43278: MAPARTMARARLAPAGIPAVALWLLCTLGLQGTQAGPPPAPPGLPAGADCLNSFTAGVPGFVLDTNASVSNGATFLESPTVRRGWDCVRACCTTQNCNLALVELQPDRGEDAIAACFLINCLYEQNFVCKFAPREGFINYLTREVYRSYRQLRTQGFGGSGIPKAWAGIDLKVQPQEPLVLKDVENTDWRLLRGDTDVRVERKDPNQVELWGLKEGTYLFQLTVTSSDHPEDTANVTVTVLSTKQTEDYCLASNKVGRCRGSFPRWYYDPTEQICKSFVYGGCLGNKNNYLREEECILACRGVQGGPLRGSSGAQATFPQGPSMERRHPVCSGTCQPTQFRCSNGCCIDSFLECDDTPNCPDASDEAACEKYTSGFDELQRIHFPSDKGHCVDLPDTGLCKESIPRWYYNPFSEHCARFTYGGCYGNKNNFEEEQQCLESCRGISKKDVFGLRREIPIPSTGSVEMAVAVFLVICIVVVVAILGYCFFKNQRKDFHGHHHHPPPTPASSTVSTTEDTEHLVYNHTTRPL
UniProt Q15532, whole entry, looked up: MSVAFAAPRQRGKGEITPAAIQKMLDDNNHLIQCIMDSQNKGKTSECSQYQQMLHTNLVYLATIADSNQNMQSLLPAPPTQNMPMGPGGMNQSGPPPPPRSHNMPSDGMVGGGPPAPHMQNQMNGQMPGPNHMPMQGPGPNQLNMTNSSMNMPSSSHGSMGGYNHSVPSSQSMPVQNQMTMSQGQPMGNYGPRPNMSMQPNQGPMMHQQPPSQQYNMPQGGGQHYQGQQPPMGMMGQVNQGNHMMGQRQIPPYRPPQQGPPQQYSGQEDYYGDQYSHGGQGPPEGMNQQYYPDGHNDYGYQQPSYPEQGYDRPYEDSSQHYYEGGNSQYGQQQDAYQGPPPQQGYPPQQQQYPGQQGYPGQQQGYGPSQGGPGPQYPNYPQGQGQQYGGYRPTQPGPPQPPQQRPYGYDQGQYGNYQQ
UniProt Q9H8P0: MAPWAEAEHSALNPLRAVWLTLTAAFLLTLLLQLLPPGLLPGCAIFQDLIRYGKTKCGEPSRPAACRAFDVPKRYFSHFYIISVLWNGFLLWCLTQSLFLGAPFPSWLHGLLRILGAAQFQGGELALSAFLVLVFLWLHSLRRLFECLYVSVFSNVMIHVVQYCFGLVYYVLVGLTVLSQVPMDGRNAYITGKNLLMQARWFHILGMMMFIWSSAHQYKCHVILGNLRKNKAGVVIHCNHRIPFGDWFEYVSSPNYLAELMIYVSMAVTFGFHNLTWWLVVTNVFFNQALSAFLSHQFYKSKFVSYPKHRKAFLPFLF
UniProt P30626: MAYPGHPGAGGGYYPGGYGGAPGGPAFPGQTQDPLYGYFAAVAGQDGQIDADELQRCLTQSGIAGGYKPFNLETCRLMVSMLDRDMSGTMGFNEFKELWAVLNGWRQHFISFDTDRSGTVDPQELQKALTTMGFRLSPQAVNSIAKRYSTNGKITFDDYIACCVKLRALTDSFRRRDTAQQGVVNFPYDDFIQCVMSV
UniProt Q8IYB3: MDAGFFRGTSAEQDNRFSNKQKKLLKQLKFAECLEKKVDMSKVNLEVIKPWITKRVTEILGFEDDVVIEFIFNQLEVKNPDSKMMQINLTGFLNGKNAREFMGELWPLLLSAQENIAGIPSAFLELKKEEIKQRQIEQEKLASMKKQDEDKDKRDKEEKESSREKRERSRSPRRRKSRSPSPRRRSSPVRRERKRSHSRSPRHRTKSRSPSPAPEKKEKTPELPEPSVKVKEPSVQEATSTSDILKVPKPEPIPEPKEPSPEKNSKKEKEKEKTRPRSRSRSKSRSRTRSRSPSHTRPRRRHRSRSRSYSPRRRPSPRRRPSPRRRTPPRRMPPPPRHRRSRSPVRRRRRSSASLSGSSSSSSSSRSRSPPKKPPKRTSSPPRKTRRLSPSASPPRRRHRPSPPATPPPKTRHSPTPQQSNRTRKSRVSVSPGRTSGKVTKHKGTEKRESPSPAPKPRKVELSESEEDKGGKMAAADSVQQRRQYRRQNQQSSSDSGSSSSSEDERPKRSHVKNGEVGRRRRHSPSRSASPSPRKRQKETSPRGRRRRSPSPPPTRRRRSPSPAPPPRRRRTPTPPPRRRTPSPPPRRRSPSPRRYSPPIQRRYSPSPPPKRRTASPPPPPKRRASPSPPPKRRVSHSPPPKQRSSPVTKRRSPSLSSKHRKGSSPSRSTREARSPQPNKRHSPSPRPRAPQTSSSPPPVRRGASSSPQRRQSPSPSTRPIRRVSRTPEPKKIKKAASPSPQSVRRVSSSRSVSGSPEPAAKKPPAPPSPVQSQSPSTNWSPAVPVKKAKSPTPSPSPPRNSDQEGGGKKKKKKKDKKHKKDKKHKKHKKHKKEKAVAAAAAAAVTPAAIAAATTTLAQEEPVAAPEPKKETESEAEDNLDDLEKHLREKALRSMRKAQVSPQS
UniProt Q9UNL2: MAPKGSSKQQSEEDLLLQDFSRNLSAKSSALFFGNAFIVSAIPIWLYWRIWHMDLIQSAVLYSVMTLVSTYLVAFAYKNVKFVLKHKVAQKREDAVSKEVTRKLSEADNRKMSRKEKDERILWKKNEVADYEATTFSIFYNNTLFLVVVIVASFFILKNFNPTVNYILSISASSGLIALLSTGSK
UniProt Q68D10: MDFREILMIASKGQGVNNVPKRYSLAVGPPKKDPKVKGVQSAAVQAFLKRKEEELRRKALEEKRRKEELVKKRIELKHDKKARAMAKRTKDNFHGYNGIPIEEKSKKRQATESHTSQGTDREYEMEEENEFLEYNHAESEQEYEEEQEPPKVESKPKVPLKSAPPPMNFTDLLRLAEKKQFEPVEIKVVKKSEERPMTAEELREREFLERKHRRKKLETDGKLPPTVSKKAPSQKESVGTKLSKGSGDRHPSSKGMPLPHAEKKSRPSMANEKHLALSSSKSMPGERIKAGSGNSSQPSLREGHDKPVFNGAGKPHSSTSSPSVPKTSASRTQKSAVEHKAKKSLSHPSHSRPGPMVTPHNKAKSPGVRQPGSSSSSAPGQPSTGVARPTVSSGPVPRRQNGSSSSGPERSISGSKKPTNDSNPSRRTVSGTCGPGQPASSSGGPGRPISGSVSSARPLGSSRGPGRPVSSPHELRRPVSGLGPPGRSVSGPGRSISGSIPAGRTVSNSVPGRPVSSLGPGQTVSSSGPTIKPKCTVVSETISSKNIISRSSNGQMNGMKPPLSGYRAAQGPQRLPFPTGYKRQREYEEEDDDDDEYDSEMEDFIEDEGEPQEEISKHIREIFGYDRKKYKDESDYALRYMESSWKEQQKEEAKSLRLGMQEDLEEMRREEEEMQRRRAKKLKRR
UniProt Q9NUQ6: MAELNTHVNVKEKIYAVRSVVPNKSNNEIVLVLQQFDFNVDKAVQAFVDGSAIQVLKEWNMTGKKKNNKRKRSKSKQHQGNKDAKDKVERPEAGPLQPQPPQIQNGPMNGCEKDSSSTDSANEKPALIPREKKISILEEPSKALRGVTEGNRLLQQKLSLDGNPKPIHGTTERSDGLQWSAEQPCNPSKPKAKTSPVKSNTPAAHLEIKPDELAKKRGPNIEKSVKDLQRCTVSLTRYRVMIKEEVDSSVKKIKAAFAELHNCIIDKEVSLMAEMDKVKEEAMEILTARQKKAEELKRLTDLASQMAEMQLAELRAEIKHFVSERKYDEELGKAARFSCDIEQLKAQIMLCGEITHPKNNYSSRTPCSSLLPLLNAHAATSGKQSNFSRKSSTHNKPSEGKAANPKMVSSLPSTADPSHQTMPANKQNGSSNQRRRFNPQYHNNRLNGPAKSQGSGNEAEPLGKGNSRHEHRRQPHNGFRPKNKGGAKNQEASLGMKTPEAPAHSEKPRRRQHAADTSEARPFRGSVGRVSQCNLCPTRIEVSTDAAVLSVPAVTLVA
UniProt P49675, whole entry, looked up: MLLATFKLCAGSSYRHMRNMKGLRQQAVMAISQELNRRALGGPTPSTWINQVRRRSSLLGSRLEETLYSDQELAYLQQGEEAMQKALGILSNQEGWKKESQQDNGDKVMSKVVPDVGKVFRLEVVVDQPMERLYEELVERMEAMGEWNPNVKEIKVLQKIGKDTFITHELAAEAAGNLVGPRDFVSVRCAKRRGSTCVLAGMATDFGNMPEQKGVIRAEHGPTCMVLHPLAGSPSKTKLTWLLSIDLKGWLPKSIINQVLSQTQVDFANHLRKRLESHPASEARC
UniProt Q9ULZ2: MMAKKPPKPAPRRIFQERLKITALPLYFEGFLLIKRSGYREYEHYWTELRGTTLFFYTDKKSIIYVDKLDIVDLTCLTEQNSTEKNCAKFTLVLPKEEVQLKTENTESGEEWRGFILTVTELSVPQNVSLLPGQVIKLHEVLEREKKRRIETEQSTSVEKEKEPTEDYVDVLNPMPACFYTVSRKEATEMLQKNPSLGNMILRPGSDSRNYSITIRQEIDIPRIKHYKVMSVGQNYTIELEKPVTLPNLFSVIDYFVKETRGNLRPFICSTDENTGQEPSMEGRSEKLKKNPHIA
UniProt O75177, whole entry, looked up: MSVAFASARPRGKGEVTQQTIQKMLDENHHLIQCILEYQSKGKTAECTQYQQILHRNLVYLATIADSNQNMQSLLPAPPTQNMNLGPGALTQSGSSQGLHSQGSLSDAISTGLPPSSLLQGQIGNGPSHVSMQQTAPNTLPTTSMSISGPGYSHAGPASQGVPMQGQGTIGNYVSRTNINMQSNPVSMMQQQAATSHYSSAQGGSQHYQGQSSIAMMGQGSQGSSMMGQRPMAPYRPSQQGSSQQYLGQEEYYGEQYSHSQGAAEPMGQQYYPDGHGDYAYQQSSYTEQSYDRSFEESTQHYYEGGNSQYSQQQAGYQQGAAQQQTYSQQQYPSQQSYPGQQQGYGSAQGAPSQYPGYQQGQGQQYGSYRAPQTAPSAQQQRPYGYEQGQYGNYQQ
UniProt Q8N9Q2: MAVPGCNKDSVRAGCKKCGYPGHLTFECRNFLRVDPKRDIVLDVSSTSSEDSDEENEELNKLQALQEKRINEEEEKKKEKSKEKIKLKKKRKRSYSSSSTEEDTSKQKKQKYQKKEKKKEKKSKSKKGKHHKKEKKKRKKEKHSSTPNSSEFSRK
UniProt Q04837: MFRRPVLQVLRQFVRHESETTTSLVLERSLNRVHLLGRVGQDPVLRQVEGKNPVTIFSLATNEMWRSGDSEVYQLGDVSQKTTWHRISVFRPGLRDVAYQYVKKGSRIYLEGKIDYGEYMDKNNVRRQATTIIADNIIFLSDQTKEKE

What was measured:
Experiment in all cases: log2 fold change, soluble protein after heating vs DMSO (PISA); higher = thermal stabilisation; K562 lysate, 10 uM; active = over 0.2 and 3.5 SD of the protein, either way, in both replicates (recomputed)
nilotinib = compound: Cc1cn(-c2cc(NC(=O)c3ccc(C)c(Nc4nccc(-c5cccnc5)n4)c3)cc(C(F)(F)F)c2)cn1 [nilotinib]
Summary of the method: (§1)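 To prepare the extract, K562 pellets were dounce-homogenised in PBS pH 7.4 with 1 mM MgCl2, giving crude material at 1 mg/mL protein. This was treated with 10 μM compound for 30 min, then heated in aliquots for 3 min over 48°C-58°C before pooling and addition of NP-40 to 0.5% at 4°C. Centrifugation at 21,000xg for 90 min left soluble protein in the supernatant, which TMTpro 16plex LC-MS/MS quantified with equalised channel sums. Results are log-two fold changes in thermal stability compared with solvent controls, from duplicates.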

[1] = compound: Cc1nc(Nc2n[nH]c3c2CN(C(=O)N[C@H](CN(C)C)c2ccccc2)C3(C)C)c2sccc2n1
Summary of the method: as §1

dasatinib = compound: Cc1nc(Nc2ncc(C(=O)Nc3c(C)cccc3Cl)s2)cc(N2CCN(CCO)CC2)n1 [dasatinib]
Summary of the method: as §1

[2] = compound: Cc1ncc(-c2ccnc(Nc3ccc(S(C)(=O)=O)cc3)n2)n1C(C)C
Summary of the method: as §1

[3] = compound: Cn1cc(-c2ccc3c(c2)CCN3C(=O)Cc2cccc(C(F)(F)F)c2)c2c(N)ncnc21
Summary of the method: as §1

quisinostat = compound: Cn1cc(CNCC2CCN(c3ncc(C(=O)NO)cn3)CC2)c2ccccc21 [quisinostat]
Summary of the method: as §1

tipifarnib = compound: Cn1cncc1[C@@](N)(c1ccc(Cl)cc1)c1ccc2c(c1)c(-c1cccc(Cl)c1)cc(=O)n2C [tipifarnib]
Summary of the method: as §1

[4] = compound: NC(=O)Nc1cc(-c2cccc(F)c2)sc1C(=O)N[C@H]1CCCNC1
Summary of the method: as §1

[5] = compound: NC(=O)c1cnc(N[C@@H]2CCCC[C@@H]2N)nc1Nc1cccc(-n2nccn2)c1
Summary of the method: as §1

[6] = compound: NC1(c2ccc(-c3nc4ccn5c(=O)[nH]nc5c4cc3-c3ccccc3)cc2)CCC1
Summary of the method: as §1

Measured: log2 fold change

STARD9 (UniProt Q9P2P6)
inactive: nilotinib -0.026 | [1] -0.091 | dasatinib 0.018 | [2] 0.009 | [3] -0.108 | quisinostat -0.092 | tipifarnib 0.061 | [4] 0.052 | [5] 0.058 | [6] -0.04

SPIN1 (UniProt Q9Y657)
inactive: nilotinib -0.063 | [1] 0.103 | dasatinib 0.035 | [2] -0.115 | [3] -0.037 | quisinostat -0.063 | tipifarnib -0.101 | [4] -0.13 | [5] -0.135 | [6] -0.019

SSBP3 (UniProt Q9BWW4)
inactive: nilotinib -0.005 | [1] 0.061 | dasatinib -0.015 | [2] 0.014 | [3] 0.016 | quisinostat 0.018 | tipifarnib 0.028 | [4] -0.035 | [5] -0.029 | [6] -0.097

SRSF7 (UniProt Q16629)
inactive: nilotinib -0.006 | [1] -0.053 | dasatinib 0.011 | [2] -0.056 | [3] -0.006 | quisinostat 0.047 | tipifarnib 0.016 | [4] -0.088 | [5] 0.019 | [6] 0.034

STAT3 isoform 3 (UniProt P40763)
inactive: nilotinib -0.051 | [1] 0.028 | dasatinib -0.038 | [2] -0.066 | [3] -0.079 | quisinostat 0.012 | tipifarnib -0.031 | [4] 0.022 | [5] -0.072 | [6] 0.095

STIL isoform 2 (UniProt Q15468)
inactive: nilotinib 0.023 | [1] 0 | dasatinib -0.043 | [2] -0.012 | [3] 0.018 | quisinostat -0.092 | tipifarnib 0 | [4] 0.057 | [5] -0.047 | [6] 0.005

SPINDOC (UniProt Q9BUA3)
inactive: nilotinib 0.092 | [1] 0.031 | dasatinib 0.046 | [2] -0.037 | [3] 0.003 | quisinostat 0.088 | tipifarnib -0.08 | [4] 0 | [5] -0.038 | [6] 0.027

SRXN1 (UniProt Q9BYN0)
inactive: nilotinib -0.055 | [1] 0.041 | dasatinib -0.002 | [2] 0.035 | [3] -0.067 | quisinostat -0.052 | tipifarnib -0.064 | [4] 0.074 | [5] 0.044 | [6] 0.026

STAG2 isoform 2 (UniProt Q8N3U4)
inactive: nilotinib -0.036 | [1] 0.026 | dasatinib -0.018 | [2] 0.002 | [3] 0.024 | quisinostat -0.009 | tipifarnib 0.007 | [4] -0.007 | [5] -0.001 | [6] -0.023

SPINT1 (UniProt O43278)
inactive: nilotinib 0.055 | [1] -0.023 | [2] 0.049 | quisinostat 0.029 | tipifarnib 0.036 | [4] 0.013 | [5] 0.033 | [6] 0.061

SS18 (UniProt Q15532)
inactive: nilotinib 0.061 | [1] 0.114 | dasatinib -0.052 | [2] 0.133 | [3] -0.01 | quisinostat 0.045 | tipifarnib 0.018 | [4] -0.088 | [5] -0.049 | [6] -0.004

SRD5A3 (UniProt Q9H8P0)
inactive: nilotinib -0.132 | [1] -0.23 | dasatinib -0.118 | [2] 0.044 | [3] 0.219 | quisinostat 0.372 | tipifarnib -0.062 | [4] -0.086 | [5] -0.223 | [6] 0.023

SRI (UniProt P30626)
inactive: nilotinib 0.034 | [1] -0.018 | dasatinib 0.037 | [2] 0.04 | [3] -0.028 | quisinostat 0.036 | tipifarnib 0.008 | [4] -0.102 | [5] -0.05 | [6] 0.028

SRRM1 (UniProt Q8IYB3)
inactive: nilotinib 0.015 | [1] 0.008 | dasatinib 0.048 | [2] 0.031 | [3] 0.029 | quisinostat 0.147 | tipifarnib 0.011 | [4] -0.034 | [5] 0.012 | [6] 0.036

SRBD1 (UniProt Q8N5C6)
inactive: nilotinib 0.003 | [1] 0.019 | dasatinib 0.052 | [2] 0.055 | [3] -0.004 | quisinostat -0.062 | tipifarnib 0.055 | [4] -0.004 | [5] -0.111 | [6] -0.101

STAT3 isoform 2 (UniProt P40763)
inactive: nilotinib -0.005 | [1] -0.022 | dasatinib -0.019 | [2] 0 | [3] 0.006 | quisinostat 0 | tipifarnib 0.008 | [4] 0.019 | [5] 0 | [6] -0.035

SSR3 isoform 2 (UniProt Q9UNL2)
inactive: nilotinib 0.009 | [1] -0.045 | dasatinib 0.043 | [2] -0.014 | [3] -0.044 | quisinostat -0.021 | tipifarnib 0.038 | [4] 0.029 | [5] 0.01 | [6] -0.029

STIM1 (UniProt Q13586)
inactive: nilotinib -0.031 | [1] -0.019 | dasatinib -0.03 | [2] 0.001 | [3] -0.027 | quisinostat 0.023 | tipifarnib -0.012 | [4] 0.009 | [5] 0 | [6] -0.031

SPATA33 isoform 2 (UniProt Q96N06)
inactive: nilotinib -0.355 | [1] 0.041 | dasatinib 0.077 | [2] 0.05 | [3] 0.108 | tipifarnib -0.116 | [5] -0.138

SPTY2D1 (UniProt Q68D10)
inactive: nilotinib 0.132 | [1] -0.094 | dasatinib -0.12 | [2] -0.19 | [3] 0.153 | quisinostat -0.122 | tipifarnib -0.109 | [4] -0.083 | [6] -0.043

SPOUT1 (UniProt Q5T280)
inactive: nilotinib 0.056 | [1] 0.122 | dasatinib -0.028 | [2] -0.046 | [3] -0.045 | tipifarnib -0.145 | [5] 0.027 | [6] 0.012

STAT2 (UniProt P52630)
inactive: nilotinib -0.017 | [1] 0.006 | dasatinib -0.024 | [2] -0.086 | [3] 0.025 | quisinostat -0.117 | tipifarnib -0.024 | [4] 0.054 | [5] 0.016 | [6] -0.016

STAMBP (UniProt O95630)
inactive: nilotinib -0.028 | [1] 0.024 | dasatinib 0.036 | [2] -0.002 | [3] 0.008 | quisinostat 0.035 | tipifarnib -0.033 | [4] 0.014 | [5] 0.005 | [6] -0.027

2 consecutive entries out of the list so far:
SPATA33 isoform 2 (UniProt Q96N06)
inactive: nilotinib -0.355 | [1] 0.041 | dasatinib 0.077 | [2] 0.05 | [3] 0.108 | tipifarnib -0.116 | [5] -0.138

SPTY2D1 (UniProt Q68D10)
inactive: nilotinib 0.132 | [1] -0.094 | dasatinib -0.12 | [2] -0.19 | [3] 0.153 | quisinostat -0.122 | tipifarnib -0.109 | [4] -0.083 | [6] -0.043

The listing continues.

STAT1 isoform 2 (UniProt P42224)
inactive: nilotinib 0.023 | [1] 0.075 | [2] 0.095 | quisinostat 0.07 | tipifarnib -0.038 | [4] 0.01

SRM (UniProt P19623)
inactive: nilotinib 0.026 | [1] -0.009 | dasatinib -0.008 | [2] 0.009 | [3] 0.012 | quisinostat 0.009 | tipifarnib 0.014 | [4] 0.041 | [5] 0.017 | [6] 0.045

SPATS2L isoform 2 (UniProt Q9NUQ6)
inactive: nilotinib 0.004 | [1] 0.102 | [2] -0.03 | quisinostat -0.198 | tipifarnib -0.069 | [4] -0.059 | [5] 0.121 | [6] 0.09

STAR (UniProt P49675)
inactive: nilotinib 0.037 | [1] -0.092 | dasatinib 0.046 | [2] -0.019 | [3] 0.011 | quisinostat -0.041 | tipifarnib 0.203 | [4] -0.135 | [6] -0.146

STAP1 (UniProt Q9ULZ2)
inactive: nilotinib -0.085 | [1] -0.259 | dasatinib -0.054 | [2] 0.231 | [3] 0.021 | tipifarnib 0.099 | [6] -0.09

SS18L1 (UniProt O75177)
inactive: nilotinib 0 | [1] -0.078 | [2] 0.03 | quisinostat -0.073 | tipifarnib 0.066 | [4] -0.025 | [6] 0.052

SREK1IP1 (UniProt Q8N9Q2)
inactive: nilotinib -0.071 | [1] -0.049 | [2] 0.105 | quisinostat 0.08 | tipifarnib 0.044 | [4] -0.022 | [5] -0.07 | [6] -0.002

SREK1 isoform 2 (UniProt Q8WXA9)
inactive: nilotinib 0.035 | [1] -0.018 | dasatinib -0.025 | [2] -0.007 | [3] 0.017 | quisinostat 0.011 | tipifarnib 0.017 | [4] -0.021 | [5] 0.013 | [6] 0.022

SRPRA (UniProt P08240)
inactive: nilotinib -0.002 | [1] 0.01 | dasatinib 0.003 | [2] -0.028 | [3] -0.01 | quisinostat -0.019 | tipifarnib -0.026 | [4] 0 | [5] 0.023 | [6] 0.033

SSBP1 (UniProt Q04837)
inactive: nilotinib 0.005 | [1] 0.007 | dasatinib 0.023 | [2] 0.003 | [3] -0.001 | quisinostat -0.043 | tipifarnib -0.002 | [4] 0.011 | [5] 0.017 | [6] 0.02
